Values quoted from earlier work in patent publication US8404866B2, “Substituted heterocyclic mercaptosulfonamide metalloprotease inhibitors” (Florida State University Research Foundation, priority 2008, dated 2013).
At least one compound was matched to its structure with a doubt left.

System: meningococcal meningitis
Conditions: model of meningococcal meningitis; cited from earlier work

CNC(=O)[C@H](Cc1ccccc1)NC(=O)[C@H](CC(C)C)[C@H](CSc1cccs1)C(=O)NO [Batimastat]
intracranial pressure and blood-brain barrier breakdown: effective in reducing
